Data source: PubChem BioAssay AID652243 (Drosophila RNAi Screening Center, 2013)
In all, the deposit lists about 24,000 reagents; this is an unselected part of those that have a named target and a result. Over the whole deposit, 246 (1%) were called active. 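Plates not normalised; calls are printed but the firefly/Renilla ratio behind them is not deposited; fold cut for lowering reported inconsistently.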 Raw values vary from plate to plate and are shown uncorrected. Names joined by + are all predicted targets of the reagent. The record does not give: the amount of reagent.

- Purpose: 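Knock-downs that decrease or increase androgen receptor reporter signal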 (primary screen)
- System: Drosophila S2R+ cells
- Reagents: long dsRNA against Drosophila genes
- Time to read-out: 72 h (48 h, then 24 h hormone)
- Conditions: synthetic androgen R1881 at 10 nM for 24 h
- Measured: 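Per-well raw luminescence of the androgen-driven firefly reporter and of the Renilla control, two replicates each, without normalisation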
- Reading the numbers: firefly reporter light: higher = more light from androgen-responsive reporter; Renilla control light: higher = more constitutive control signal (cell number, transfection)
- Call rule: 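Hit when the log firefly-to-Renilla ratio dropped or increased by a fixed fold versus the mean of GFP or LacZ controls across duplicate plates; lowering cut given as 1.5 and as 3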
- Meaning of the calls: active = hit: reporter lowered or raised; inactive = no hit

predicted target,amplicon,"firefly reporter light, replicate 1","firefly reporter light, replicate 2","Renilla control light, replicate 1","Renilla control light, replicate 2",Outcome
Or71a,DRSC11244,97901,1.05e5,1.47e6,1.28e6,inactive
dcma,DRSC00246,6.02e5,5.96e5,6.62e5,5.48e5,inactive
dcma,DRSC00338,1.34e5,1.04e5,1.16e6,9.29e5,inactive
CG42827,DRSC16116,2.34e5,2.74e5,2.25e6,2.60e6,inactive
abd-A,DRSC13179,18780,19982,1.17e5,1.02e5,inactive
abd-A,DRSC23013,7.29e5,9.70e5,1.67e6,1.74e6,inactive
abd-A,DRSC29065,5.44e5,4.54e5,1.67e6,1.32e6,inactive
CG11619,DRSC09849,3.19e5,1.99e5,2.42e6,2.50e6,inactive
dpr1,DRSC06399,1.62e5,1.59e5,1.69e6,1.84e6,inactive
Prip,DRSC07044,1.61e6,1.02e6,2.21e6,1.21e6,inactive
Prip,DRSC26459,3.38e5,2.37e5,7.63e5,3.98e5,inactive
CG13640,DRSC14639,1.58e5,1.79e5,1.37e6,1.20e6,inactive
CG15153,DRSC02454,1.25e5,1.57e5,1.54e6,1.52e6,inactive
CG15153,DRSC26085,3.35e5,2.78e5,7.92e5,5.99e5,inactive
Cp190,DRSC16607,86013,87154,7.51e5,3.62e5,inactive
CG33341,DRSC22887,7.25e5,8.80e5,2.35e6,2.41e6,inactive
CG33341,DRSC24893,1.16e6,1.26e6,7.28e5,7.32e5,inactive
CG33341,DRSC39098,7.56e5,6.90e5,1.55e6,1.47e6,inactive
Unc-115b + p24-2 + Unc-115a,DRSC16502,1.63e5,1.28e5,2.01e6,2.27e6,inactive
CR15280,DRSC01953,1.42e5,1.66e5,1.29e6,1.58e6,inactive
CR15280,DRSC24110,9.73e5,1.00e6,8.35e5,7.71e5,inactive
Irk3,DRSC02047,1.13e5,1.74e5,1.20e6,1.14e6,inactive
CG15646,DRSC19682,3.81e5,2.94e5,2.27e6,2.26e6,inactive
PlexA,DRSC17220,1.10e5,1.04e5,5.16e5,4.46e5,inactive
Ret,DRSC03409,5.87e5,5.15e5,2.60e6,1.91e6,inactive
Ret,DRSC03410,94004,1.05e5,8.93e5,1.20e6,inactive
Ret,DRSC37019,,,,,inactive
bs,DRSC23068,9.88e5,1.34e6,1.48e6,1.98e6,inactive
bs,DRSC25943,5.10e5,6.30e5,9.84e5,9.82e5,inactive
Xbp1,DRSC04553,4.23e5,4.51e5,3.93e6,4.37e6,inactive
Xbp1,DRSC21624,6.35e5,6.93e5,1.80e6,2.86e6,inactive
RYBP,DRSC04117,1.35e6,7.82e5,2.08e6,1.50e6,inactive
RYBP,DRSC27464,2.84e5,2.84e5,8.37e5,8.80e5,inactive
CG43345 + CG43346,DRSC03164,9.34e5,1.09e6,2.05e6,2.04e6,inactive
Drak,DRSC19778,2.95e5,3.12e5,1.78e6,1.51e6,inactive
Drak,DRSC23298,5.57e5,4.85e5,5.76e5,6.60e5,inactive
Drak,DRSC28871,3.74e5,3.09e5,6.82e5,6.77e5,active
Drak,DRSC36990,,,,,inactive
ninaE,DRSC17014,3.19e5,2.93e5,3.53e6,3.12e6,inactive
ninaE,DRSC25724,4.38e5,4.01e5,4.56e5,4.95e5,inactive

Looked up above.
CG15153 [DRSC26085], firefly reporter light, replicate 1 → 3.35e5
For “Outcome”, CR15280 [DRSC24110] shows inactive
Value of CG33341 [DRSC22887] in “firefly reporter light, replicate 1”: 7.25e5
Under “Outcome”, PlexA [DRSC17220] has inactive
For “Renilla control light, replicate 2”, CG13640 [DRSC14639] is entered as 1.20e6
